Laboratory results taken from patent publication US10159636B2, “Cosmetic composition containing acetylated oligoglucuronans” (Sederma, S.A.S., priority 2008, dated 2018).
At least one structure is not confirmed: it was looked up by name or label, or the drawing left a doubt.

Test system: hyaluronic acid synthesis by keratinocytes
Assay: Assay of hyaluronic acid synthesis by keratinocytes (sandwich ELISA)
Type: cell-based, human
Conditions: Table 8
Procedure: Human keratinocytes are inseminated. After anchoring for 24 h, retinoic acid and 9.1% acetylated oligoglucuronans are placed in contact with the cells for 72 h. The culture supernatants are removed and the amount of hyaluronic acid is quantified by sandwich ELISA.
Retinoic acid is used at the positive control for hyaluronic acid synthesis.
Analysis of variance is performed on the data (treated cases compared to untreated cases). If variances are equal, a Student t test for paired series is then performed on the mean values.
Human keratinocytes are inseminated into well plates. After anchoring for 24 h, retinoic acid, oligoglucuronans I, oligoglucuronans II, oligoglucuronans III, glucuronic acid and galacturonic acid are placed in contact with the cells for 72 h. The culture supernatants are removed and the amount of hyaluronic acid is quantified by sandwich ELISA.
Retinoic acid is used as a positive control of hyaluronic acid.

Structure (SMILES): CC1=C(/C=C/C(C)=C/C=C/C(C)=C/C(=O)O)C(C)(C)CCC1 [Retinoic acid]
- Conclusion (hyaluronic acid synthesis by keratinocytes): Positive
